Measured values reported in patent publication CN114573694A.
No constants are given. Whether binding was seen depends on the method and setting. Some binding calls cover weakened binding; strength is not graded here. Tags and fused reporters may be left off the sequences shown.

Biological target: T1, IL13Rα2 antigen without His tag, expressed from pMAL (IL13Rα2-W/O-HIS) (human) (UniProt Q14627)
T1 sequence (looked up): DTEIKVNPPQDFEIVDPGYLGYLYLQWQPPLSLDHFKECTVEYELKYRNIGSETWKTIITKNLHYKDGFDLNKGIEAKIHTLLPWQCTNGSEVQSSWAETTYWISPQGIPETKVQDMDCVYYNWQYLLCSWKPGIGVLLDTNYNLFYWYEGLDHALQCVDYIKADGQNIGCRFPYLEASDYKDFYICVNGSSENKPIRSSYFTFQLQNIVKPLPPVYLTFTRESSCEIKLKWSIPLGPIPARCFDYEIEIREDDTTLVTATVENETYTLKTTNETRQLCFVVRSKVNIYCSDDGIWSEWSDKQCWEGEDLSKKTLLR
Test: Western blot, mAb15D8 as first antibody

B1: anti-IL13Rα2 monoclonal antibody mAb15D8 (mouse, from hybridoma) (antibody, mouse IgG1, kappa, V domains shown)
VH: QVTLKESGPGILQPSQTLSLTCSFSGFSLSPSGMGVSWIRQPSGKGLEWLAHIYWDDDKLYNPSLKSRLTISKDTSSNQVFLKITSVDTADTATYYCARRGLRLRAMDYWGQGTSVTVSS
VL: DIVLTQSPASLAVSLGQRATISCRASESVDSYGNSFMHWYQQKPGQPPKLLIYRTSNLESGIPARFSGSGSRTDFTLTINPVEADDVATYYCQQSNEDPFTFGSGTKLEIKR
binding: binds
